# No constants are given. Whether binding was seen depends on the method and setting. Binding seen in cells or lysates may run through a third protein. A yes stands for co-enrichment or nearness to the bait. Other partners may have been found. Where a sequence is shown, tags or fusion partners need not be part of it.
# T1: TAP-epitope tagged Cdc55 (S. cerevisiae) (UniProt Q00362)
# T1 sequence: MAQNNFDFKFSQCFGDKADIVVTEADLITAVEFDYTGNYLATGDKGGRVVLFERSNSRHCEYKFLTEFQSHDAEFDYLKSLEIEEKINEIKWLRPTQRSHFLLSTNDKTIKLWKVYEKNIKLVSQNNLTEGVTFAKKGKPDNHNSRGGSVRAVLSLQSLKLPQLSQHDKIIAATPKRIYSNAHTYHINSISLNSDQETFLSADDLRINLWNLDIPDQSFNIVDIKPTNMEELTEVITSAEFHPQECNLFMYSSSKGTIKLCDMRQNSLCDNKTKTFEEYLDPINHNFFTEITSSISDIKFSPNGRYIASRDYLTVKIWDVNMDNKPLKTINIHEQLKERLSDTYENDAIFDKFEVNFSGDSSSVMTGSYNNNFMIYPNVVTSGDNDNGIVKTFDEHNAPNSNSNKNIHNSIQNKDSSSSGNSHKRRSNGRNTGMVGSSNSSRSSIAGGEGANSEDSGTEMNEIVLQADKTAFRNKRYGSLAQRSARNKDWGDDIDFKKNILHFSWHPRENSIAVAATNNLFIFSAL
# T2: HA-Cdc55 (S. cerevisiae) (UniProt Q00362)
# T2 sequence: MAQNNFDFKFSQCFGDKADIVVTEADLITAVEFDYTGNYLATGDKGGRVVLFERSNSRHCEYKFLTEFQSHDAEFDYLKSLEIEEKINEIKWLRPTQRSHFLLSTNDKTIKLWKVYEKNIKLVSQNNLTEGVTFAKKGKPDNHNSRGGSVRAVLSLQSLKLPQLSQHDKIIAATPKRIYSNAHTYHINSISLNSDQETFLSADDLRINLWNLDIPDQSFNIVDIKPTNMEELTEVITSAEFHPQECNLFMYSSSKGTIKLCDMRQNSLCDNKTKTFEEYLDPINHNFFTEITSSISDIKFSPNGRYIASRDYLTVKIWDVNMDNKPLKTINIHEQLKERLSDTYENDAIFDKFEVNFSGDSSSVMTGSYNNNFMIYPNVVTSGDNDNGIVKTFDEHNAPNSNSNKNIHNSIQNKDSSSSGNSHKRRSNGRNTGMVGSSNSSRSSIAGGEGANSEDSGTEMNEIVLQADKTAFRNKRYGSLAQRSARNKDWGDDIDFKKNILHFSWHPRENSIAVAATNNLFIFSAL
# Molecular target: T1, TAP-epitope tagged Cdc55 (S. cerevisiae)
# Experiment: affinity purification with mass spectrometry; tandem affinity purification of TAP-Cdc55 from yeast cell extract: IgG-sepharose, release with AcTEV protease, calmodulin-coated beads with calcium, release with EGTA; eluates by LC-MS/MS; strain without the TAP epitope as control; two biological replicates
row,binding,Binder
1,binds,"Dnm1 (protein, UniProt P54861 1-757) MASLEDLIPTVNKLQDVMYDSGIDTLDLPILAVVGSQSSGKSSILETLVGRDFLPRGTGIVTRRPLVLQLNNISPNSPLIEEDDNSVNPHDEVTKISGFEAGTKPLEYRGKERNHADEWGEFLHIPGKRFYDFDDIKREIENETARIAGKDKGISKIPINLKVFSPHVLNLTLVDLPGITKVPIGEQPPDIEKQIKNLILDYIATPNCLILAVSPANVDLVNSESLKLAREVDPQGKRTIGVITKLDLMDSGTNALDILSGKMYPLKLGFVGVVNRSQQDIQLNKTVEESLDKEEDYFRKHPVYRTISTKCGTRYLAKLLNQTLLSHIRDKLPDIKTKLNTLISQTEQELARYGGVGATTNESRASLVLQLMNKFSTNFISSIDGTSSDINTKELCGGARIYYIYNNVFGNSLKSIDPTSNLSVLDVRTAIRNSTGPRPTLFVPELAFDLLVKPQIKLLLEPSQRCVELVYEELMKICHKCGSAELARYPKLKSMLIEVISELLRERLQPTRSYVESLIDIHRAYINTNHPNFLSATEAMDDIMKTRRKRNQELLKSKLSQQENGQTNGINGTSSISSNIDQDSAKNSDYDDDGIDAESKQTKDKFLNYFFGKDKKGQPVFDASDKKRSIAGDGNIEDFRNLQISDFSLGDIDDLENAEPPLTEREELECELIKRLIVSYFDIIREMIEDQVPKAVMCLLVNYCKDSVQNRLVTKLYKETLFEELLVEDQTLAQDRELCVKSLGVYKKAATLISNIL"
2,binds,"Set1 (protein, UniProt P38827 1-1080) MSNYYRRAHASSGSYRQPQEQPQYSRSGHYQYSNGHSHQQYSSQYNQRRRYNHNDGTRRRYNDDRPHSSNNASTRQYYATNNSQSGPYVNKKSDISSRRGMSQSRYSNSNVHNTLASSSGSLPTESALLLQQRPPSVLRYNTDNLKSKFHYFDPIKGEFFNKDKMLSWKATDKEFSETGYYVVKELQDGQFKFKIKHRHPEIKASDPRNENGIMTSGKVATHRKCRNSLILLPRISYDRYSLGPPPSCEIVVYPAQDSTTTNIQDISIKNYFKKYGEISHFEAFNDPNSALPLHVYLIKYASSDGKINDAAKAAFSAVRKHESSGCFIMGFKFEVILNKHSILNNIISKFVEINVKKLQKLQENLKKAKEKEAENEKAKELQGKDITLPKEPKVDTLSHSSGSEKRIPYDLLGVVNNRPVLHVSKIFVAKHRFCVEDFKYKLRGYRCAKFIDHPTGIYIIFNDIAHAQTCSNAESGNLTIMSRSRRIPILIKFHLILPRFQNRTRFNKSSSSSNSTNVPIKYESKEEFIEATAKQILKDLEKTLHVDIKKRLIGPTVFDALDHANFPELLAKRELKEKEKRQQIASKIAEDELKRKEEAKRDFDLFGLYGGYAKSNKRNLKRHNSLALDHTSLKRKKLSNGIKPMAHLLNEETDSKETTPLNDEGITRVSKEHDEEDENMTSSSSEEEEEEAPDKKFKSESEPTTPESDHLHGIKPLVPDQNGSSDVLDASSMYKPTATEIPEPVYPPEEYDLKYSQTLSSMDLQNAIKDEEDMLILKQLLSTYTPTVTPETSAALEYKIWQSRRKVLEEEKASDWQIELNGTLFDSELQPGSSFKAEGFRKIADKLKINYLPHRRRVHQPLNTVNIHNERNEYTPELCQREESSNKEPSDSVPQEVSSSRDNRASNRRFQQDIEAQKAAIGTESELLSLNQLNKRKKPVMFARSAIHNWGLYALDSIAAKEMIIEYVGERIRQPVAEMREKRYLKNGIGSSYLFRVDENTVIDATKKGGIARFINHCCDPNCTAKIIKVGGRRRIVIYALRDIAASEELTYDYKFEREKDDEERLPCLCGAPNCKGFLN"
3,binds,"Zeo1 (protein, UniProt Q08245 1-113) MSEIQNKAETAAQDVQQKLEETKESLQNKGQEVKEQAEASIDNLKNEATPEAEQVKKEEQNIADGVEQKKTEAANKVEETKKQASAAVSEKKETKKEGGFLKKLNRKIASIFN"
4,binds,"Apa1 (protein, UniProt P16550 1-321) MSIPADIASLISDKYKSAFDNGNLKFIQTETTKTKDPKTSMPYLISHMPSLIEKPERGQTPEGEDPLGKPEEELTVIPEFGGADNKAYKLLLNKFPVIPEHTLLVTNEYQHQTDALTPTDLLTAYKLLCALDNEESDKRHMVFYNSGPASGSSLDHKHLQILQMPEKFVTFQDRLCNGKEHFLPTFNTEPLQDAKVSFAHFVLPMPESEETVDEDLLAMCYISILQRALTFFQDWLNENPELKKSYNLMLTKEWICVVPRSKAFSDEMKIGFNSTGYCGMILTKNDEVFSKITEKPELINDILLECGFPNTSGQKPNEYNY"

# Molecular target: T2, HA-Cdc55 (S. cerevisiae)
# Experiment: affinity purification with mass spectrometry; HA-Cdc55 and associated proteins recovered from yeast cell extract on HA-agarose beads; eluates separated on a gel, trypsin digestion, TiO2 phosphopeptide enrichment, LC-MS/MS
row,binding,Binder
1,binds,"Sro9 (protein, UniProt P25567 1-434) MSAETAAANTATAPVPEVQEQESSKSKQVNLTPAPLPTSSPWKLAPTEIPVSTISIEDLDATRKKKNRTPTPKSSTATKWVPIKASITVSGTKRSGSKNGASNGNSNKSKNNKTAASSTSSSNANRKKKHHQHNAKKQQQMKKDGFESAVGEEDSKDATSQENGQSTQQQQPPHHRNHHHSHHHNSNGPQRRKFHNSNNAGMPQNQGFPPQFKPYQGRNARNNNNNRSKYHNHFHHNQQHPQQPMVKLQQQFYPVQPVLMAINNIARQIEYYFSEENLTVDNYLRSKLSKDGFAPLSLISKFYRVVNMSFGGDTNLILAALREIVANEAATVNVAEGTLAAKEGDNVTGEAKEPSPLDKYFVRSKSWSNWLPETFETEINIEKELVGDALDQFMISLPPVPQQEEESSTELASQEQETKEDSAPVAAGESESSL"
2,binds,"Tgl1 (protein, UniProt P34163 1-548) MYFPFLGRLSITDYIIVVLVYIESIISSVLKLIPQPMINLFEWLINFSTSSDDNTIEEKLRSAPTIHEMCAIFDISVEDHLVRTEDNYILTLHRIPPISKNRFNNKVVYLHHGLLMCSDVWCCNIERHKNLPFVLHDLGYDVWMGNNRGNKYSTAHLNKPPKSNKFWDFSIDEFAFFDIPNSIEFILDITKVDKVICIGFSQGSAQMFAAFSLSEKLNRKVSHFIAIAPAMTPKGLHNRIVDTLAKSSPGFMYLFFGRKIVLPSAVIWQRTLHPTLFNLCIDIANKILFNWKSFNILPRQKIASYAKLYSTTSVKSIVHWFQILRSQKFQMFEESDNMLNSLTRPYQIANFPTRTNIKIPILLIYGGIDSLVDIDVMKKNLPFNSVFDVKVDNYEHLDLIWGKDADTLVIAKVLRFIEFFNPGNVSVKTNQLLPSASLVEELPSTTWKTTHPTHGLSYRTHSADRSPLSVQADEADEVHNADNSRFLRRVFSTSAIDEDNENEHQDDTEDQIHKEQQRRLSAYLESSKDLRQLDANSSTTALDALNKE"

# Second part, the binder before the results:
row,Binder,binding
1,"Psh1 (protein, UniProt Q12161 1-406) MGDELHNRLLHQNDGTKDAILYKIIESLVCSICHDYMFVPMMTPCGHNYCYGCLNTWFASNTQKELACPQCRSDITTIPALNTTLQQYLSFILEKLRDQNDESFKKLLTTKTKEENDYKNDKEKDTLFDKVFKNSALAVADDSDDGITRCSNCHWELDPDEVEDGNVCPHCNARIRNYAGGRDEFDEEEYSEGELDEIRESMRRRRENRFASTNPFANRDDVSSEDDDSSEEEPMREHIPLGRWARSHNRSIAVDAVDDEDDEEEDEEEEEEMDSDLKDFIEDDEDDEDEDGSRRNLVLSALKNRHVIITDDEEEEQRRHATEEEDRDSDFYEHNDDGFVSGDSLDEDQKEVTRIQSSSDSEDRSLSYSGSSDVKDNNDDNTEELDDPQPKRQKRFRVVLGDSDDE",binds
2,"Hos3 (protein, UniProt Q02959 1-697) MSSKHSDPLERFYKQFQAFVQNNPNVISAARAAAQIPESAKAVVVLSPYSLQHVFPREWVTKSYRKTIVERPERLLASSMGISAAITMYPSLFTLKSSHQRKGSLMAPHVLKVHGSSWPAELIELCQMADAKLLKGEIEVPDTWNSGDIYLSSKTIKALQGTIGAIETGVDSIFKGPSAEHISNRAFVAIRPPGHHCHYGTPSGFCLLNNAHVAIEYAYDTYNVTHVVVLDFDLHHGDGTQDICWKRAGFKPEEEPEDSSYDDFGKKFAEFPKVGYFSMHDINSFPTESGFATKENIKNASTCIMNSHDLNIWNIHLSKWTTEEEFNVLYRTKYRTLFAKADEFFRSAKLEMNQQGRPFKGLVVISAGFDASEFEQTSMQRHSVNVPTSFYTTFTKDALKLAQMHCHGKVLSLMEGGYSDKAICSGVFAHLIGLQNQDWVKEWGSEQVVKEIVRGCKPAWKPYKTKRAKDVIRIWAEEVIRLGRAMIPEFDDIIFKDAVNSAPSNSLLKATVEPASTSTIAQRIIRSHRSNASPEKELHENKPRSTEKQEQREIRSDTKVKQLSSNNRAAETQIPFLQQEFSSEDEDEEYVYDEELNKTFNRTVEDITIDDISRHLETLEIEKKGDEDSDHELKEKNWKNSHQRRLQGNGMYKIPSNTKPHRIRQPQNANTPTYDDSDISMISHVSRKHTTRSGGRW",binds
